Measured values: PMC4652755
Results are given in words; binding and its absence hold for the method and conditions named. Some entries that bind do so weakly or less than the wild type.

Biological target: T1, REV1, yeast two-hybrid construct (UniProt Q9UBZ9)
T1 sequence: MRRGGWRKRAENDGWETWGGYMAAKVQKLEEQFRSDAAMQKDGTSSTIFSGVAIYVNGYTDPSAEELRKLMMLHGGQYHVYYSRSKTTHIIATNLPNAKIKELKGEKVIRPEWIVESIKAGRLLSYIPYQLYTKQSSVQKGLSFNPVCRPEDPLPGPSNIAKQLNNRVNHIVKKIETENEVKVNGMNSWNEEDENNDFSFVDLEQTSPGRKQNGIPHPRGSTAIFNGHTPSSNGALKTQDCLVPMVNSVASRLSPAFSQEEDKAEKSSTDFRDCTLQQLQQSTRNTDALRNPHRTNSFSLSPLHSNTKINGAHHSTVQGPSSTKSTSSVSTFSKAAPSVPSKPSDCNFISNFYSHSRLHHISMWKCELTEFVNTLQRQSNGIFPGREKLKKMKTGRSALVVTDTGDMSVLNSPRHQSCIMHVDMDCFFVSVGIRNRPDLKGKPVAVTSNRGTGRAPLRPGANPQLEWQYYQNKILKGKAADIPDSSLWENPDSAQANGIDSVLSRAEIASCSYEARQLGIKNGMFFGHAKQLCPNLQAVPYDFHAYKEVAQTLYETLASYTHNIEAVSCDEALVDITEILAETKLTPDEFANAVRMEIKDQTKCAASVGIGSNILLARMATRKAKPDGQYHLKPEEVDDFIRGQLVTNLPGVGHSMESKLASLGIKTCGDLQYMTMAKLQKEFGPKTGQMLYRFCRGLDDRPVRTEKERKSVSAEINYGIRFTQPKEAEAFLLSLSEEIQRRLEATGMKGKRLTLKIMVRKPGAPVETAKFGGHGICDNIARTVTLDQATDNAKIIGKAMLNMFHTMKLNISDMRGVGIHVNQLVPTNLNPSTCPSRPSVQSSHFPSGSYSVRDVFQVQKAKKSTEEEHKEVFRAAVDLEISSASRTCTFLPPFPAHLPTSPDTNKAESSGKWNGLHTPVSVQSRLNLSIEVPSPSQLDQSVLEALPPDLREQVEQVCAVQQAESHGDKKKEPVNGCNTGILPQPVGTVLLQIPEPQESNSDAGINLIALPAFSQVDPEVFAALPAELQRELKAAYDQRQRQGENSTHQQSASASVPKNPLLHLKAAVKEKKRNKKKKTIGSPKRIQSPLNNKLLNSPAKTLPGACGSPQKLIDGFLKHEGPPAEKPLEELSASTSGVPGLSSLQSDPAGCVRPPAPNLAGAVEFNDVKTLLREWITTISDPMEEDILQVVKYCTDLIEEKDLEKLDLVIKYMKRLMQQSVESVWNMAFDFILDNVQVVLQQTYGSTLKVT
Experiment: two-hybrid; yeast two-hybrid assays (Supplementary Figures S1 and S5); bait and prey not given

B1: DNA polymerase η (Polη), yeast two-hybrid construct (enzyme, UniProt Q9Y253 1-713)
chain: MATGQDRVVALVDMDCFFVQVEQRQNPHLRNKPCAVVQYKSWKGGGIIAVSYEARAFGVTRSMWADDAKKLCPDLLLAQVRESRGKANLTKYREASVEVMEIMSRFAVIERASIDEAYVDLTSAVQERLQKLQGQPISADLLPSTYIEGLPQGPTTAEETVQKEGMRKQGLFQWLDSLQIDNLTSPDLQLTVGAVIVEEMRAAIERETGFQCSAGISHNKVLAKLACGLNKPNRQTLVSHGSVPQLFSQMPIRKIRSLGGKLGASVIEILGIEYMGELTQFTESQLQSHFGEKNGSWLYAMCRGIEHDPVKPRQLPKTIGCSKNFPGKTALATREQVQWWLLQLAQELEERLTKDRNDNDRVATQLVVSIRVQGDKRLSSLRRCCALTRYDAHKMSHDAFTVIKNCNTSGIQTEWSPPLTMLFLCATKFSASAPSSSTDITSFLSSDPSSLPKVPVTSSEAKTQGSGPAVTATKKATTSLESFFQKAAERQKVKEASLSSLTAPTQAPMSNSPSKPSLPFQTSQSTGTEPFFKQKSLLLKQKQLNNSSVSSPQQNPWSNCKALPNSLPTEYPGCVPVCEGVSKLEESSKATPAEMDLAHNSQSMHASSASKSVLEVTQKATPNPSLLAAEDQVPCEKCGSLVPVWDMPEHMDYHFALELQKSFLQPHSSNPQVVSAVSHQGKRNPKSPLACTNKRPRPEGMQTLESFFKPLTH
  binding: binds
